Measurements reported in PubChem BioAssay AID602196 (INSERM, 2012)
Test: 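Modifiers of cisplatin sensitivity in A549 cells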. Cell system: human A549 lung cancer cells. Knock-down reagent: siRNA pair against human genes. Timing: 48 h transfection before cisplatin; time from cisplatin to read-out not stated. Treatment: cisplatin at a dose killing half of control-siRNA cells; exact dose and duration not given. Measurement: 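Cisplatin cell death as a shift from the 50% death seen with control siRNA; siRNAs toxic or growth-blocking alone scored 0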. Direction: two-siRNA summed score (-2 to +2): higher = both siRNAs protect from cisplatin killing; -2 means both sensitise; mean protection from cisplatin (shift in death): higher = protection from cisplatin killing. Call rule: 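Each siRNA scores 0 if harmful alone by LDH or WST-1, otherwise +1 if it reduces and -1 if it increases cisplatin killing; a gene is active when both siRNAs agree (sum +2 or -2)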. Calls: active = both siRNAs shift cisplatin killing the same way; inactive = no consistent shift, or siRNA harmful alone.
The deposit covers about 23,000 reagents; shown is an unselected part. 455 of them (2%) were called active. 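Active includes both protection and sensitisation; some change values fall well beyond the stated -50 to +50 range.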 Reagents against one gene are numbered here. Further read-outs or replicates are left out here. The record does not give: the amount of reagent.

LOC284964: two-siRNA summed score (-2 to +2) = 0; mean protection from cisplatin (shift in death) (%) = 21.3; outcome = inactive
LOC93556: two-siRNA summed score (-2 to +2) = 0; mean protection from cisplatin (shift in death) (%) = 12.7; outcome = inactive
CAP1 (cyclase associated actin cytoskeleton regulatory protein 1): two-siRNA summed score (-2 to +2) = 0; mean protection from cisplatin (shift in death) (%) = -4.6; outcome = inactive
GSTO1 (glutathione S-transferase omega 1): two-siRNA summed score (-2 to +2) = 1; mean protection from cisplatin (shift in death) (%) = 9.5; outcome = inactive
LGR5 (leucine rich repeat containing G protein-coupled receptor 5): two-siRNA summed score (-2 to +2) = 0; mean protection from cisplatin (shift in death) (%) = 12.3; outcome = inactive
LOC401106: two-siRNA summed score (-2 to +2) = 0; mean protection from cisplatin (shift in death) (%) = 2.4; outcome = inactive
LOC440075: two-siRNA summed score (-2 to +2) = 0; mean protection from cisplatin (shift in death) (%) = 2.8; outcome = inactive
ATG4B (autophagy related 4B cysteine peptidase): two-siRNA summed score (-2 to +2) = 0; mean protection from cisplatin (shift in death) (%) = -2.9; outcome = inactive
MARVELD2 (MARVEL domain containing 2): two-siRNA summed score (-2 to +2) = 0; mean protection from cisplatin (shift in death) (%) = 5.9; outcome = inactive
SACK1F (scaffolding CK1 anchoring protein F): two-siRNA summed score (-2 to +2) = 1; mean protection from cisplatin (shift in death) (%) = 13.1; outcome = inactive
FCGR2B (Fc gamma receptor IIb): two-siRNA summed score (-2 to +2) = 1; mean protection from cisplatin (shift in death) (%) = 12.1; outcome = inactive
LGALS7 (galectin 7): two-siRNA summed score (-2 to +2) = 1; mean protection from cisplatin (shift in death) (%) = 1.3; outcome = inactive
LOC441570: two-siRNA summed score (-2 to +2) = 1; mean protection from cisplatin (shift in death) (%) = 8.2; outcome = inactive
DCHS1 (dachsous cadherin-related 1): two-siRNA summed score (-2 to +2) = 0; mean protection from cisplatin (shift in death) (%) = 4.5; outcome = inactive
PRSS3 (serine protease 3): two-siRNA summed score (-2 to +2) = 0; mean protection from cisplatin (shift in death) (%) = 4.4; outcome = inactive
PIR (pirin) #1: two-siRNA summed score (-2 to +2) = 0; mean protection from cisplatin (shift in death) (%) = 3.8; outcome = inactive
PIR (pirin) #2: two-siRNA summed score (-2 to +2) = 0; mean protection from cisplatin (shift in death) (%) = 8.4; outcome = inactive
TTF2 (transcription termination factor 2): two-siRNA summed score (-2 to +2) = 0; mean protection from cisplatin (shift in death) (%) = 2.5; outcome = inactive
ZC3H11D (zinc finger CCCH-type containing 11D): two-siRNA summed score (-2 to +2) = 0; mean protection from cisplatin (shift in death) (%) = 10.5; outcome = inactive
KLK6 (kallikrein related peptidase 6): two-siRNA summed score (-2 to +2) = 0; mean protection from cisplatin (shift in death) (%) = -9.8; outcome = inactive
SHC3 (SHC adaptor protein 3): two-siRNA summed score (-2 to +2) = 0; mean protection from cisplatin (shift in death) (%) = 4.4; outcome = inactive
ENOSF1 (enolase superfamily member 1): two-siRNA summed score (-2 to +2) = 0; mean protection from cisplatin (shift in death) (%) = 11.7; outcome = inactive
FOXN1 (forkhead box N1): two-siRNA summed score (-2 to +2) = 0; mean protection from cisplatin (shift in death) (%) = 5.8; outcome = inactive
NGF (nerve growth factor): two-siRNA summed score (-2 to +2) = 0; mean protection from cisplatin (shift in death) (%) = -4.4; outcome = inactive
LOC441531: two-siRNA summed score (-2 to +2) = 1; mean protection from cisplatin (shift in death) (%) = 6.3; outcome = inactive
S100A6 (S100 calcium binding protein A6): two-siRNA summed score (-2 to +2) = 0; mean protection from cisplatin (shift in death) (%) = 2.8; outcome = inactive
POLR2G (RNA polymerase II subunit G): two-siRNA summed score (-2 to +2) = -1; mean protection from cisplatin (shift in death) (%) = -5.9; outcome = inactive
ACOX3 (acyl-CoA oxidase 3, pristanoyl): two-siRNA summed score (-2 to +2) = -1; mean protection from cisplatin (shift in death) (%) = -15.8; outcome = inactive
OTUB2 (OTU deubiquitinase, ubiquitin aldehyde binding 2): two-siRNA summed score (-2 to +2) = 0; mean protection from cisplatin (shift in death) (%) = -9.7; outcome = inactive
KDM6B (lysine demethylase 6B): two-siRNA summed score (-2 to +2) = 0; mean protection from cisplatin (shift in death) (%) = -4; outcome = inactive
SDF4 (stromal cell derived factor 4): two-siRNA summed score (-2 to +2) = 1; mean protection from cisplatin (shift in death) (%) = 19.6; outcome = inactive

4 entries already listed, arranged by “two-siRNA summed score (-2 to +2)”, ascending.
POLR2G (RNA polymerase II subunit G): two-siRNA summed score (-2 to +2) = -1; mean protection from cisplatin (shift in death) (%) = -5.9; outcome = inactive
ACOX3 (acyl-CoA oxidase 3, pristanoyl): two-siRNA summed score (-2 to +2) = -1; mean protection from cisplatin (shift in death) (%) = -15.8; outcome = inactive
S100A6 (S100 calcium binding protein A6): two-siRNA summed score (-2 to +2) = 0; mean protection from cisplatin (shift in death) (%) = 2.8; outcome = inactive
LOC441531: two-siRNA summed score (-2 to +2) = 1; mean protection from cisplatin (shift in death) (%) = 6.3; outcome = inactive
